Measured values from PMC6073118.
Results are given in words; binding and its absence hold for the method and conditions named. Binding seen in cells or lysates may run through a third protein. Some results given as binding are weak or reduced against the parent protein; the word gives no strength.

Biological target: T1, Tic55 (A. thaliana (endogenous in isolated chloroplasts)) (UniProt Q9SK50)
T1 sequence: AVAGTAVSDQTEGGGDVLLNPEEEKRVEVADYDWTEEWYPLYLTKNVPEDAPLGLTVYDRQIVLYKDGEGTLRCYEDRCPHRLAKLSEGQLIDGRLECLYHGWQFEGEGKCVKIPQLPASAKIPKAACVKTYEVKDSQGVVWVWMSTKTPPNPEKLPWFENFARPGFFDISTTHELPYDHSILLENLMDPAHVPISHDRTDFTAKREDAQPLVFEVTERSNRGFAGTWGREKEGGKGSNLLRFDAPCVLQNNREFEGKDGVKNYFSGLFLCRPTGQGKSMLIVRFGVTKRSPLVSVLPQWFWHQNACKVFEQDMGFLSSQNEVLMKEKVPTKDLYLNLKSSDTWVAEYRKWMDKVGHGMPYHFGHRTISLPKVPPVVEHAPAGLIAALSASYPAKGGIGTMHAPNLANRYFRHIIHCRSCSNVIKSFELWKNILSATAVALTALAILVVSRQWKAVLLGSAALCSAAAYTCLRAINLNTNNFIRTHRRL
Experiment: co-IP; isolated chloroplasts of wild-type A. thaliana treated with 0.5 mM DSP (quenched with 50 mM glycine) and hypotonic buffer; membrane pellet solubilised in 25 mM HEPES-KOH pH 8.0, 50 mM KCl, 4% Tx-100, 20% glycerol; IP with anti-Tic55 antibody or preimmune serum and protein A, 4 °C; blots with anti-Tic110, anti-Hsp93, anti-Tic40

binding: binds
B1: Tic110 (protein, UniProt Q8LPR9 52-1016)
chain: SAASSDQLSVSTQAKNPGIHGNKKELTGLQPIVEKMTPPVRLATSAVVLAASLATGYGLGLRLAGSRNIAFGGAAVAGAAGGAVVYALNSAVPEVAAISLHNYVAEFEDPASVTKDDVEKIADRYGVNKGDEAFQAEICDIYCRYVTSVLPTEGQSLKGDEVAKIVKFKNALGIDEPDAAAMHMEIGRRIFRQRLETGEREGDAEQRRAFMRLVYVSALVFGDASSFLLPWKRVLKVTDAQVEIAIRENAKQLYAERLKLVGRDINVENLVDLRKSQLSFKLSDELAEDLFREHTRKVVVENISSALSILKSRTRAAKSLASVVEELEKVLEFNNLLVSLKSHSEADQFARGVGPISLIGDESDFERRMDDLKLLYRAYVTDALSGGRLEENKLVAMSQLRNILGLGKREAEAISVDVTSKSYRKRLANAVSSGDLEAQDSKAKYLQKLCEELHFDAQKAGAIHEEIYRQKLQQCVTDGELSDDNVAALLRLRVMLCIPQQTVDTAHAEICGTIFEKVVRDAISSGVDGYDAETRKSVRKAAHGLRLSRETAMSIASKAVRRVFTNYIRRARAAENRTDSAKELKKMIAFNTLVVTEMVADIKGESSDKAPEEDPVQEKEEDDEDEEWGSLESLRKTRPDKELAEKMGKPGQTEITLKDDLPDRDRIDLYKTYLLYCVTGEVTRIPFGAQITTKRDDSEYLLLNQLGGILGLSSKEIVNIHVGLAEQAFRQQAEVILADGQLTKARVEQLDELQKQVGLPQPQAEKVIKNITTTKMANAIETAVNQGRLNIKQIRELKEANVSLDSMIAVSLREKLFKKTVSDIFSSGTGEFDETEVYQTIPSDLSIDVEKAKRVVHDLAQSRLSNSLVQAVALLRQRNSKGVVLSLNDLLACDKAVPAEPMSWEVSEELSDLYAIYSKSDPKPAPEKVLRLQYLLGIDDSTATALREMEDGALSSAAEEGNFVF
